The record followed here is paper PMC11324294, “Peripheral gating of mechanosensation by glial diazepam binding inhibitor” (The Journal of Clinical Investigation, 2024).

The experiment concerns T1, GABAA receptors of presumed mechanosensitive rat DRG neurons.
T1 construct: gene Gabra1
Conditions: read-out: EC50-control; without DBI; presumed mechanosensitive neurons (capsaicin-negative); -60 mV, room temperature; agonist.

Turning to `NCCCC(=O)O` [GABA], the concentration for a half-maximal effect (EC50) is 67.6 ± 14.7 µM.

For orientation: EC50 means the concentration giving half of the maximal effect.
